This is one part of the list. These are further read-outs of the screen, such as a control signal, another cell line or another target. No call is given for them. Compounds called inactive in the main read-out are mostly missing here. Potencies come from curve fits of mixed quality, noted in brackets.
Assay: qHTS Assay for Lipid Storage Modulators in Drosophila S3 Cells;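 for cell number change: cells counted by Cell Tracker Red CMTPX staining in the red channel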
Conditions: BODIPY lipid droplet fluorescence, 18-24 h; for cell number change: measured here: cell count max response, cells fed with added oleic acid
Method in brief: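 Drosophila S3 cells loaded with oleic acid (400 uM, as added) and compounds at several concentrations; lipid droplets imaged by 488-nm laser-scanning cytometry, 500–530 nm intensity and object ratio to cell channel. Percent activity normalized to 20 uM Triacsin C.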

[1] = measured here: cell number channel AC50, cells fed with added oleic acid
[2] = measured here: lipid fluorescence (Fed channel) AC50, cells fed with added oleic acid

SMILES | cell number change | AC50 [1] | AC50 [2]
CCOc1ccccc1N1CCN(CC(=O)N(CC(C)C)c2c(N)n(CC(C)C)c(=O)[nH]c2=O)CC1 | 36.1% | 18.4 µM [rising, single point] | 1.64 µM [rising, single point]
CCN(C(=O)CSc1ncccc1C(=O)O)C1CCCCC1 | -20.2% |  | 0.731 µM [falling, partial curve]
CC1=CCC2C(=O)N(C(C)c3ccccc3)C(=O)C2C1 (centres undefined) |  |  | 18.4 µM [rising, partial curve]
Nc1ccc(O)c(-c2nc3ccccc3s2)c1 |  |  | 16.4 µM [rising, partial curve]
CCOc1ccccc1C(=O)NCC(=O)NNC(=O)c1cccc(S(=O)(=O)Nc2ccc(OC)cc2)c1 | 30.1% |  | 18.4 µM [rising, single point]
COc1ccc(OC)c(C2N(c3cc(C)on3)C(=O)C3CCCN32)c1 (centres undefined) | -13.8% |  | 0.00461 µM [falling, full curve, poor fit]
O=C(c1cc2ccccc2o1)N1CCN(S(=O)(=O)c2ccccc2)CC1 | -25% | 0.00651 µM [falling, full curve, poor fit] | 
CC(=O)c1sc(NC(=O)CCS(=O)(=O)c2ccc(C)cc2)nc1C | -23.7% |  | 11.6 µM [falling, partial curve]
CC(C)NC(=O)NC(=O)COC(=O)c1cccc(S(=O)(=O)N2CCCCC2)c1 | -6.61% |  | 
CC1=C(C)CC(C(=O)Nc2cccc([N+](=O)[O-])c2)C(C(=O)O)C1 (centres undefined) | 6.86% |  | 6.51 µM [rising, partial curve]
COc1ccc(S(=O)(=O)Cc2ccc(C(=O)NCc3ccccc3)o2)cc1 | 35.9% | 29.1 µM [rising, single point] | 20.6 µM [falling, single point]
COc1ccc([C@H]2CC(=O)C=C(c3ccc(C)cc3)C2)cc1OC | -25% | 0.00461 µM [falling, full curve, poor fit] | 0.731 µM [falling, partial curve, poor fit]
O=S(=O)(CCc1ccncc1)c1ccc(Cl)cc1 | -7.69% | 3.66 µM [rising, partial curve] | 
O=C(NC1CCCCC1)C1COc2ccccc2O1 (centres undefined) |  |  | 6.51 µM [rising, single point]
O=C(COC(=O)Cc1c(F)cccc1Cl)NC1CCS(=O)(=O)C1 (centres undefined) | -81.5% | 29.1 µM [falling, single point] | 
Cn1c(=O)c2c(ncn2CC(=O)OCC(=O)NC2CCCc3ccccc32)n(C)c1=O (centres undefined) |  |  | 0.291 µM [falling, partial curve, poor fit]
COc1ccc(CCCC(=O)Nc2cc(C)ccc2OC)cc1 | -14.4% |  | 
CC(C)C(=O)OCC(=O)Nc1ccc2c(c1)CCC2 | 42.2% | 29.1 µM [rising, single point] | 
COc1ccccc1OCC(=O)Nc1ccc(S(=O)(=O)N(C)c2ccccc2)cc1 | 1.18% |  | 
CCc1noc(C)c1C(=O)N(C)CC(=O)Nc1ccccc1C(F)(F)F | 4.02% |  | 

SMILES | cell number change | AC50 [1] | AC50 [2]
Cc1ccc(-c2cc(N)n(-c3ccc(C)cc3)n2)cc1 | -6.44% |  | 3.66 µM [falling, partial curve]
CCOc1c2ccccc2nn1CCO | -2.64% |  | 29.1 µM [rising, single point]
O=C(NOC(=O)c1ccccc1Cl)c1cccs1 | -23.4% | 4.61 µM [falling, full curve, poor fit] | 29.1 µM [falling, single point]
Cn1cnnc1SCC(=O)Nc1ccc2nc(SCc3ccccc3)sc2c1 | 19.1% |  | 25.9 µM [rising, single point]
CCOC(=O)C1CCCN(C(=O)c2cc3cc(Br)ccc3oc2=O)C1 (centres undefined) | -49.8% | 10.3 µM [falling, partial curve, poor fit] | 29.1 µM [falling, single point]
Cc1ccc(C)c(N(CC(=O)NCc2ccc3c(c2)OCO3)C(=O)CCC(=O)Nc2ccccn2)c1 | -0.746% |  | 
CN(C)CCSc1nc(O)c(-c2ccccc2)c(=O)n1-c1ccccc1 | -15.6% |  | 2.59 µM [falling, full curve, poor fit]
Cc1ccc(NC(=O)C2CCN(S(=O)(=O)c3ccc4c(c3)NC(=O)CO4)CC2)cc1 | 47.1% | 29.1 µM [rising, single point] | 6.51 µM [rising, single point]
CCCC[N+](C)(C)CCC(=O)NC(C)(C)CS(=O)(=O)[O-] |  |  | 29.1 µM [rising, single point]
CN(C)c1ncnc2sc(-c3ccccc3)cc12 | 58.1% | 29.1 µM [rising, single point] | 
S=C1Cc2ccccc2N1 | -62.2% | 5.8 µM [falling, full curve] | 5.17 µM [falling, full curve]
O=S(=O)(NCC1CCN(Cc2ccccc2)CC1)c1ccccc1C(F)(F)F | 14.6% |  | 16.4 µM [rising, single point]
Cc1ccc(O)c(CCc2ccccc2)n1 | 4.67% |  | 29.1 µM [falling, single point]
COc1cc(/C=C/C(=O)c2c(O)ccc3c(C)cc(=O)oc23)ccc1O | 19.7% | 0.731 µM [falling, full curve] | 0.0164 µM [falling, full curve]
COC(=O)C1=C(C(=O)OC)[C@@H]2N(Cc3ccccc3)c3ccccc3[C@@]23C[C@@H](C(=O)OC)N(C(=O)c2cccs2)C3=N1 | -46.3% | 29.1 µM [falling, single point] | 18.4 µM [falling, single point]
C#CCNC(=O)C1=C[C@H](c2csc3ccccc23)[C@@H](CCCO)[C@H](OCC)O1 | -10.4% |  | 29.1 µM [falling, single point]
C=CCOc1ccc(-c2n[nH]c(=S)o2)cc1 | 11.6% |  | 
COc1ccc(NC(=O)CSc2nnc(NC(=O)c3ccco3)s2)cc1OC | -16.5% |  | 6.51 µM [falling, single point]
O=C(Nc1nnc(-c2ccc(Cl)cc2)o1)c1ccccc1Br | -20.9% |  | 11.6 µM [falling, single point]
C=C(C)CSc1nc(C)c(Cc2ccccc2)c(=O)[nH]1 | 78.8% | 29.1 µM [rising, single point] | 

SMILES | cell number change | AC50 [1] | AC50 [2]
O=C(Cn1c(SCC(=O)NC2CCCC2)nnc1-c1ccncc1)Nc1ccc2c(c1)OCO2 | -9.74% |  | 
CC1CN(Cc2nc3c(c(=O)n(C)c(=O)n3C)n2Cc2ccccc2)CC(C)O1 (centres undefined) | 46.9% | 29.1 µM [rising, single point] | 29.1 µM [rising, single point]
CCOC(=O)c1sc(NC(=O)Cc2ccccc2OC)nc1C | -12.6% |  | 6.51 µM [falling, single point]
O=C(N/N=C/c1ccc(N2CCOCC2)cc1)c1ccccc1NS(=O)(=O)c1cccs1 | -17.3% |  | 25.9 µM [falling, partial curve]
Cn1nc(-c2ccccn2)nc2c(=O)n(C)c(=O)nc1-2 | -19.3% | 0.326 µM [falling, full curve, poor fit] | 0.326 µM [falling, full curve]
O=C(c1ccc([N+](=O)[O-])cc1)N1CCCC1 | -18.5% |  | 29.1 µM [falling, single point]
Cc1c(NC(=S)NC(=O)CSc2ccc(Cl)cc2)cccc1C(=O)O | -13.9% |  | 29.1 µM [rising, single point]
O=C(Cc1cccc2ccccc12)N1CCN(c2ncccn2)CC1 | 14.7% |  | 
CC(C)(C)NC(=O)CN(Cc1ccc2c(c1)OCO2)C(=O)CNS(=O)(=O)c1ccc(F)cc1 | 60.3% | 18.4 µM [rising, partial curve] | 
CNC(=O)c1cc(S(=O)(=O)Nc2ccc(C)cc2C)ccc1C |  | 2.91 µM [rising, partial curve] | 
COc1cc(N2CCCC2)c(OC)cc1/C=C(/C#N)c1ccc(Br)cc1 | -46.3% |  | 0.461 µM [rising, full curve]
O=[N+]([O-])c1cc(S(=O)(=O)N2CCCC2)ccc1N/N=C/c1cccs1 | -25.2% | 0.651 µM [falling, full curve] | 
Cc1ccc(NC(=O)C2(NC(=O)c3cccc(N4C(=O)CSC4c4ccccc4)c3)CCCCC2)cc1 (centres undefined) | 7.73% |  | 0.231 µM [rising, full curve, poor fit]
CCC1Oc2ccccc2N(CC(=O)Nc2ccc(OC)cc2OC)C1=O (centres undefined) | 1.49% |  | 0.184 µM [rising, full curve, poor fit]
COC(=O)c1ccc(NS(=O)(=O)NC(=O)c2c[nH]c3ccccc23)cc1 | -2.83% |  | 18.4 µM [rising, partial curve]
CC1(C)CSC(=S)N1S(=O)(=O)c1ccccc1 | -27.4% | 0.651 µM [falling, full curve, poor fit] | 2.31 µM [falling, full curve, poor fit]
Cn1c(=O)c2c(nc(CN3CCN(C(=O)c4ccco4)CC3)n2CC(=O)C(C)(C)C)n(C)c1=O | 0.901% |  | 29.1 µM [falling, single point]
CC(=O)NC1CCCN(O)C(=O)/C=C(\C)CCOC(=O)C(NC(C)=O)CCCN(O)C(=O)/C=C(\C)CCOC(=O)C(NC(C)=O)CCCN(O)C(=O)/C=C(\C)CCOC1=O (centres undefined) | -40.6% | 0.231 µM [falling, full curve, poor fit] | 

Looked up by compound from the list above (2):
SMILES | cell number change | AC50 [1] | AC50 [2]
CC(=O)NC1CCCN(O)C(=O)/C=C(\C)CCOC(=O)C(NC(C)=O)CCCN(O)C(=O)/C=C(\C)CCOC(=O)C(NC(C)=O)CCCN(O)C(=O)/C=C(\C)CCOC1=O (centres undefined) | -40.6% | 0.231 µM [falling, full curve, poor fit] | 
CC1CN(Cc2nc3c(c(=O)n(C)c(=O)n3C)n2Cc2ccccc2)CC(C)O1 (centres undefined) | 46.9% | 29.1 µM [rising, single point] | 29.1 µM [rising, single point]

Source: PubChem BioAssay AID2685 (National Center for Advancing Translational Sciences (NCATS), 2010)
